Laboratory results published in patent US20200316087A1, “NOVEL COMBINATION THERAPY FOR ANXIETY DISORDERS, EPILEPSY, AND PAIN” (priority 2017, published 2020).

Columns and labels:
PTZ-induced clonus = test: Pentylenetetrazole (PTZ, 35 mg/kg s.c.)-induced clonic convulsions; type: in vivo, rats; conditions: MED producing motor impairment / MED producing efficacy
Method: After the inverted screen test, the rats were dosed with pentylenetetrazole (PTZ)(35 mg/kg, s.c.) in a volume of 1 ml/kg and placed in an observation cage (40.6×20.3×15.2 cm) with a floor containing […] of wood chip bedding material. PTZ dose was determined to be ˜EC97 for producing clonic convulsions.

[1] = test system: seizures in amygdala kindled rats; test: Basolateral amygdala kindling; type: in vivo; conditions: MED producing motor impairment / MED producing efficacy
Method: Seizure kindling models evaluate effects of drugs on the sensitization of the nervous system to seizure induction. In this test, drugs were evaluated for their ability to impact seizure parameters in rats that were fully kindled by daily electrical stimulation of their amygdala. Valproic acid was used as a positive control. Experiments were conducted using the general procedures of Zwart et al. (J. Pharmacol. Exp. Ther., 2014, 351:124-133). A bipolar electrode for electrical stimulation and EEG recording was stereotaxically implanted into one hemisphere of the basolateral amygdala (AP −2.2, ML −4.8, DV −8.5 mm, relative to bregma) of male Wistar rats. After post-operative recovery, electrical kindling begins, where a subthreshold constant current (400 μA, 1 ms, monophasic square-wave pulses, 60 Hz for 1 sec) is given once a day Monday-Friday for about 4-6 weeks until a rat is fully kindled. A fully kindled rat has experienced 10 consecutive stage 5 seizures or 10 of its last 12 were stage 5 according to the Racine Scale.
Twelve fully kindled rats were assigned to this study, and eight rats were selected and randomized to initial compound treatment groups from baseline after discharge threshold (ADT), seizure severity score, and after discharge duration (ADD). […] On test day, rats were dosed 30 min prior to beginning stimulation. After the pre-treatment, rats were stimulated using an ascending staircase sequence beginning at 10 μA and increasing in log unit steps of 10, 16, 25, 40, 65, 100, 160, 250, and 400 μA. Animals were stimulated until they were assigned a Seizure Severity Score for a visually observably seizure or they reached the 400 μA threshold limit. ADD was determined following testing. ADT was the current that induced a seizure; measurements were scale-adjusted to capture the stimulation scale change required to observe a seizure from the previous baseline to the ADT scored on test day. […] The average scale adjusted ADT was approximately 0.63 μA in vehicle treated rats.
Racine score of behavioral response to stimulation: 0=no behavioral response; 1=immobility, staring and/or facial clonus; 2=head nodding, jaw clonus, and/or tongue protrusion; 3=unilateral forelimb clonus; 4=bilateral forelimb clonus and/or rearing; 5=bilateral forelimb clonus with rearing and loss of balance.
After-Discharge Duration (ADD) is the duration of the first after-discharge.
ADT, ADD, and severity scores were analyzed by ANOVA. Seizure severity data was also analyzed by the nonparametric Skillings-Mack test, a generalization of the Friedman test for one-way repeated measures designs. Posthoc tests when reported were either by Dunnett's method (seizure severity) or using Wilcoxon sign rank tests (ADT and ADD). Valproic acid, used as a positive control was not used in ANOVA calculations.

PTZ seizure threshold = test: Pentylenetetrazole (PTZ, i.v.)-induced seizure threshold; type: in vivo, rats; conditions: MED producing motor impairment / MED producing efficacy
Method: Male […] Sprague-Dawley rats (Indianapolis, Ind.) were randomly assigned to treatment groups and dosed with vehicle (vehicle=1% carboxymethyl cellulose) with diazepam (0.1, 0.3, or 1 mg/kg) or test compound (3, 10, 30, or 60 mg/kg) 30 minutes prior to testing. Rats were placed in a restrainer and a winged infusion needle was inserted into the lateral tail vein. Intravenous infusion with 10 mg/ml PTZ at a rate of 0.5 ml/min was initiated until a clonic convulsion occurred, and the time to clonic convulsion was recorded in sec or a maximum of 4 min was recorded. Following infusion, rats are euthanized. The dose of PTZ required to elicit a clonic convulsion was calculated using the infusion rate, concentration of PTZ, time to clonic convulsion, and animal weight.

[2] = Unbound plasma and brain concentrations after i.p. dosing; type: in vivo, rats; conditions: unbound drug concentrations at ED50 motor impairment vs ED50 efficacy
From the text: (Table 4). Using these unbound drug concentrations, the PI based on drug levels in plasma was 3 and that based upon brain drug levels was 3.8.

| Compound | Protective index (PI), PTZ Clonus (PTZ-induced clonus) | Protective index (PI), After-Discharge Duration [1] | Protective index (PI), After-Discharge Threshold [1] | Protective index (PI), Seizure Severity [1] | Protective index (PI), PTZ Threshold (PTZ seizure threshold) | PI based on drug levels in plasma [2] | PI based upon brain drug levels [2] |
| --- | --- | --- | --- | --- | --- | --- | --- |
| CN1C(=O)CN=C(c2ccccc2)c2cc(Cl)ccc21 [Diazepam, diazepam, reference compound] | 1 | <1 | 1 | 1 | 10 |  |  |
| C#Cc1ccc2c(c1)C(c1ccccn1)=NCc1c(-c3nc(CC)no3)ncn1-2 [MP-III-080, 3-ethyl-5-(8-ethynyl-6-(pyridin-2-yl)-4H-benzo[f]imidazo[1,5-a][1,4]diazepin-3-yl)-1,2,4-oxadiazole] | >3 |  |  |  |  |  |  |
| C#Cc1ccc2c(c1)C(c1ccccn1)=NCc1c(-c3cnco3)ncn1-2 [KRM-II-81, 5-(8-ethynyl-6-(pyridin-2-yl)-4H-benzo[f]imidazo[1,5-a][1,4]diazepin-3-yl)oxazole] | 5 | 15 | 15 | 15 | 15 | 3 | 3.8 |
| C#Cc1ccc2c(c1)C(c1ccccc1)=NCc1c(-c3cnco3)ncn1-2 [KRM-II-82, 5-(8-ethynyl-6-phenyl-4H-benzo[f]imidazo[1,5-a][1,4]diazepin-3-yl)oxazole] | 15 | <5 | 15 | 15 | 15 |  |  |
